PubChem BioAssay AID1259308 – NCATS | 2017

Purpose: 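Genes whose loss raises luciferase production in HEK293 cells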 (primary screen)
Cell system: human HEK293 embryonic kidney cells stably expressing firefly luciferase (HEK-CMV-Luc2-Hygro)
Reagents: single siRNA against human genes, 0.8 pmol siRNA per well
Duration: 72 h
Detection: 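Reporter luminescence and viable-cell signal on separate replicate plates, given as percent of non-targeting control and median/MAD z-scores, plus per-cell luciferase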
Scale: total luciferase, z-score: higher = more reporter protein produced
Call rule: 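Active when the median/MAD z-score for overall luciferase is greater than 3; a gene was taken forward for validation with new siRNAs if at least two of its three siRNAs passed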
Calls: active = raised luciferase; inactive = no rise
In all, the deposit lists about 59,000 reagents; this is an unselected part. About 1,510 of all reagents (2.6%) were called active. 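Calls use total luciferase alone and ignore viability, so some active siRNAs may act by altering cell number.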 The numbers tell different reagents against one gene apart. Not all columns of the deposit are shown.

total luciferase, z-score, by gene and reagent
KLK13: #1 -0.434 inactive; #2 -0.156 inactive; #3 -0.46 inactive
CIMIP5: #1 -1.18 inactive; #2 0.0338 inactive; #3 0.0953 inactive
RLN1: #1 0.251 inactive; #2 -0.103 inactive; #3 0.302 inactive
YRDC: #1 -0.302 inactive; #2 0.971 inactive; #3 0.282 inactive
KRIT1: #1 1.2 inactive; #2 0.677 inactive; #3 -0.323 inactive
BEND7: #1 2.2 inactive; #2 -0.34 inactive; #3 -0.273 inactive
IRAK3: #1 -0.555 inactive; #2 -0.138 inactive; #3 0.0991 inactive
ZUP1: #1 -0.231 inactive; #2 -0.0398 inactive; #3 0.578 inactive
LRRC61: #1 1.97 inactive; #2 -1.87 inactive; #3 -1.34 inactive
ARHGEF28: #1 -0.613 inactive; #2 -0.76 inactive; #3 0.479 inactive
RPS2P8: #1 -1.44 inactive; #2 -1.01 inactive; #3 2.76 inactive
DYNC1I1: #1 0.152 inactive; #2 0.705 inactive; #3 -0.416 inactive
CDK2: #1 -0.195 inactive; #2 1.57 inactive; #3 -0.914 inactive
FNBP1: #1 -2.35 inactive; #2 -0.105 inactive; #3 -0.0458 inactive
ZNF697: #1 0.0392 inactive; #2 0.401 inactive; #3 1.16 inactive
CIDEB: #1 -0.499 inactive; #2 -0.815 inactive; #3 1.59 inactive
PUF60: #1 0.607 inactive; #2 0.187 inactive; #3 0.919 inactive
HCST: #1 -3.05 inactive; #2 -0.114 inactive; #3 -0.466 inactive
PRPF19: #1 2.36 inactive; #2 3.98 active; #3 4.18 active
